Laboratory results: publication PMC12139245

Sequences of proteins named here, by UniProt entry; tags and fusion partners are left off.
UniProt Q99JI1: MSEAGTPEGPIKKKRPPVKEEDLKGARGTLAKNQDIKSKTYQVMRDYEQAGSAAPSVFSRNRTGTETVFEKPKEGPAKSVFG
UniProt P11404: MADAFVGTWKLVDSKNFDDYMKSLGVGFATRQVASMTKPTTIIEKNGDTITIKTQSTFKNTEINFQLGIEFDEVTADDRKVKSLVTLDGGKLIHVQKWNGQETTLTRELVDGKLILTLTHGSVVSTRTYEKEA

Target: MUSTN1-mouse-3×FLAG (musculoskeletal embryonic nuclear protein 1) (mouse) (UniProt Q99JI1)
Experiment: affinity purification with mass spectrometry; IP-MS: lysate of transfected cells on anti-FLAG magnetic beads at 4°C overnight, washed with lysis buffer; checked by silver staining and Western blot; HPLC-MS, search with Proteome Discoverer 2.4

- binding: binds
Substance: fatty acid binding protein 3 (FABP3) found by IP-MS (from UniProt P11404 1-133)

These are yes or no findings as the source states them, for the method shown. Binding seen in cells or lysates may run through a third protein. These calls come from enrichment with a bait or labelling near it, and not all partners need be listed.
